PubChem BioAssay AID504791 | Drosophila RNAi Screening Center | 2011
The screen tested about 23,000 reagents; this is a random part of those that have a named target and a result. In the full data, 199 (0.86%) are marked active. 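Plate-scaled ratios behind the calls are not deposited; printed light signals are raw; many rows marked increased or decreased are still called inactive.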 Names joined by + are all predicted targets of the reagent.

Purpose: 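Factors in Argonaute-based small RNA production and activity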 (primary screen)
System: Drosophila S2-derived reporter cells
Knock-down reagent: long dsRNA against Drosophila genes, about 150-250 ng dsRNA per well (siRNA assay); about 80-120 ng (miRNA assay)
Time to read-out: about 5 days (siRNA assay); about 4 days (miRNA assay)
Challenge: copper sulfate induction of reporters: 25 µM (siRNA assay); 200 mM stated (miRNA assay), 1-2 days before reading
Detection: 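Per-well ratio of Renilla over firefly light, expressed relative to that plate's average ratio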
Direction: siRNA reporter hit score: higher = 3 marks a strong hit with raised ratio; -3 a strong hit with lowered ratio
Rule for the call: 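First-pass picks had plate-scaled ratios over 1.5 for the siRNA assay, over 1.6 for the miRNA assay, or under 0.6; two distinct dsRNAs had to score alike on retest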

target gene	DRSC id	siRNA reporter hit score	stable assay Renilla, run 1 (luminescence)	stable assay firefly, run 1 (luminescence)	Call
CG30487	DRSC05377		6023	3.54e5	inactive
CG4957	DRSC02793		6782	4.10e5	inactive
shop	DRSC20030		7062	3.52e5	inactive
Usp10	DRSC08282		11598	2.83e5	inactive
Usp10	DRSC08373		7240	2.98e5	inactive
hui	DRSC05977		7567	2.97e5	inactive
CG34236	DRSC05435		4171	2.94e5	inactive
CG5687	DRSC08568		11761	4.40e5	inactive
hgo	DRSC03544		7768	4.19e5	inactive
Past1	DRSC16784	3	7095	3.74e5	inactive
Tsp42Ed	DRSC05940		6723	5.17e5	inactive
acj6	DRSC20304		8722	6.98e5	inactive
BBS5	DRSC12168		7727	3.53e5	inactive
mTTF	DRSC01909		6759	4.36e5	inactive
CG4789	DRSC19918		3939	2.98e5	inactive
CG30378	DRSC05071		5378	4.32e5	inactive
CG15701	DRSC06572		7692	4.50e5	inactive
CG15531	DRSC15068		6058	4.16e5	inactive
CG14421	DRSC17918		6935	4.17e5	inactive
CG13560	DRSC04198		5939	3.72e5	inactive
CG14810	DRSC17693		6779	3.32e5	inactive
CG14810	DRSC17961		6440	3.96e5	inactive
UbcE2H	DRSC18221		8653	6.29e5	inactive
nuf	DRSC11379		9046	3.65e5	inactive
nuf	DRSC22524		3779	2.95e5	inactive
nuf	DRSC23276		5219	3.38e5	inactive
Ugt302C1	DRSC15353		7932	4.13e5	inactive

Single entries from the list:
BBS5 [DRSC12168], Call = inactive
For “Call”, nuf [DRSC11379] shows inactive
Under “Call”, nuf [DRSC22524] is entered as inactive
Value of hui [DRSC05977] in “Call”: inactive
For “Call”, CG15531 [DRSC15068] is entered as inactive
hgo [DRSC03544], Call → inactive

Next results follow:
target gene	DRSC id	siRNA reporter hit score	stable assay Renilla, run 1 (luminescence)	stable assay firefly, run 1 (luminescence)	Call
CG30495	DRSC06703		7130	3.32e5	inactive
CG12341	DRSC06133		6383	3.57e5	inactive
Coa8	DRSC17959		5752	3.08e5	inactive
TBC1d7	DRSC15985		7558	2.90e5	inactive
pcs	DRSC07042		7972	4.64e5	inactive
CG13203	DRSC06327		6552	3.10e5	inactive
mRpS14	DRSC19444		4372	2.71e5	inactive
cact	DRSC03501		8718	1.44e6	inactive
CG10365	DRSC14234		6626	3.41e5	inactive
beta-Man	DRSC12208		8586	2.89e5	inactive
beta-Man	DRSC12209		7328	3.92e5	inactive
CG1648	DRSC06610		4719	3.57e5	inactive
CG17325 + CG42305	DRSC02602		6464	4.01e5	inactive
Spn88Ea	DRSC17061		6814	3.07e5	inactive
kz	DRSC18786		6175	3.68e5	inactive
Dera	DRSC07207		7707	2.93e5	inactive
Dera	DRSC21336		9242	4.59e5	inactive
lncRNA:CR31526	DRSC21520		9818	6.16e5	inactive
CG4676	DRSC06879		5238	3.44e5	inactive
CG13096	DRSC02198		7503	3.67e5	inactive
Or35a	DRSC03389		6534	3.58e5	inactive
Zaf1	DRSC16121		6086	2.86e5	inactive
CG30460	DRSC06559		6935	4.10e5	inactive
CG30460	DRSC06560		6280	2.32e5	inactive
CG30460	DRSC23115		4191	3.25e5	inactive
Alp5	DRSC14269		6659	3.04e5	inactive
Ance-4	DRSC07104		5007	2.29e5	inactive
CG13884	DRSC08354		5866	2.95e5	inactive
CG33339	DRSC22917		2687	2.94e5	inactive
Dora	DRSC19614		5079	3.54e5	inactive
Dora	DRSC19781		4883	3.93e5	inactive
Dora	DRSC20034		4932	3.89e5	inactive
Dora	DRSC20035		6094	3.56e5	inactive
